Experimental data: publication PMC10761746
No constants are given. Whether binding was seen depends on the method and setting. For part of these data: Binding seen in cells or lysates may run through a third protein. Some binding calls cover weakened binding; strength is not graded here. For part of these data: Sequences can lack the tags named with a protein.

Amino acid sequences for entries named in this document (tags omitted).
UniProt P0A7Z7: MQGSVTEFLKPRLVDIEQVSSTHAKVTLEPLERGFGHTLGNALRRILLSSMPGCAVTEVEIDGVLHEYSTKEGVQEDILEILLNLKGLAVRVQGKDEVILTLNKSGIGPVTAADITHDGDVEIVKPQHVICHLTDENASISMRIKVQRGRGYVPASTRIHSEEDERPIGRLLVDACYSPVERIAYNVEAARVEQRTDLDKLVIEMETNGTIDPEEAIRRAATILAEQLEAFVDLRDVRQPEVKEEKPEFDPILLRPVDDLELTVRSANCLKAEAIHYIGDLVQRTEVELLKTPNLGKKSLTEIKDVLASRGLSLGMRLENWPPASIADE
UniProt P69066: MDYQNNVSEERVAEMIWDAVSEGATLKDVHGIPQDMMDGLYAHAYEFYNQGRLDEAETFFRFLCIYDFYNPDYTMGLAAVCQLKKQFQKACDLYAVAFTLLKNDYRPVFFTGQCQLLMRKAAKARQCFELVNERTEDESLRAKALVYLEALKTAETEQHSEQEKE

B1: LexA_(DBDwt)-InvF (protein, UniProt P69343 1-216)
chain: MSFSESRHNENCLIQEGALLFCEQAVVAPVSGDLVFRPLKIEVLSKLLAFIDGAGLVDTTYAESDKWVLLSPEFRAIWQDRKRCEYWFLQQIITPSPAFNKVLALLRKSESYWLVGYLLAQSTSGNTMRMLGEDYGVSYTHFRRLCSRALGGKAKSELRNWRMAQSLLNSVEGHENITQLAVNHGYSSPSHFSSEIKELIGVSPRKLSNIIQLADK
B2: InvF-FLAG (protein, UniProt P69343 1-216)
chain: B1 chain

How the values were obtained:
[1] = molecular target: LexA_(DBDmut)-RpoA (UniProt P0A7Z7); experiment: two-hybrid
[2] = molecular target: SicA two-hybrid fusion from pSR659-SicA (Salmonella enterica serovar Typhimurium) (UniProt P69066); experiment: two-hybrid
[3] = molecular target: His6-RpoA expressed from pET28-RpoA in S. Typhimurium invF::3xFLAG (UniProt P0A7Z7); experiment: pull-down

Binder	binding [1]	binding [2]	binding [3]
B1	binds	binds	–
B2	–	–	binds
